Data as given in PubChem BioAssay AID1671195 (Yale University, 2021)
Aim: 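Regulators of LDL receptor activity judged by labelled LDL uptake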 (primary screen). Cells: human Huh7 hepatoma cells. Reagent: siRNA pool against human genes, 18 nM. Timing: about 2 to 2.5 days of knockdown, then 8 h LDL uptake. Conditions: DiI-labelled LDL at 30 µg/ml for 8 h, in lipoprotein-deficient serum medium. Read-out: 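Fluorescent LDL signal imaged in cells, scaled to the plate median, robust z-score for each replicate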. Direction: robust z-score: higher = more LDL uptake after knockdown. Rule for the call: 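a gene counts as active if at least two replicate z-scores exceed ±2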.
Here is a random part of about 22,000 reagents. About 1,510 of them (6.9%) were called active. 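Active includes knockdowns raising or lowering LDL uptake; positive z-scores mean more uptake, negative mean less.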 A number with no mark means an inactive call. No sequences are given here.

gene	robust z-score, replicate 1	robust z-score, replicate 2	robust z-score, replicate 3
CBFA2T2	1.29	1.08	1.48
PLN	0.432	-0.46	0.0307
LOC439948 (retired record)	1.13	0.933	0.693
TCIRG1	0.243	0.958	0.0148
SHPRH	-0.791	-0.56	-0.407
LOC442748 (retired record)	0.0111	-0.338	-0.0766
SEMA3E	0.0219	-0.214	-1.25
KRT6A	-1.58	-1.73	-1.81
RPUSD3	0.252	0.337	0.446
C11orf16	-0.405	0.329	1.17
NAGLU	0.424	-0.0791	0.172
CTU1	-1.73	-1.88	-1.95
RUFY1	2.78 (active)	2.55	2.83
GABRA5	-0.81	-0.442	-0.544
SLC9A3-OT1	-0.329	0.529	-0.472
LOC400627	0.211	0.227	0.0175
STIP1	-0.345	0.98	-1.3
KCNMB4	1.3	0.229	1.5
PTGES3P3	-0.269	-0.108	-0.686
FOXB2	-1.7	-1.21	-1.43
PSMG1	1.39	-0.00176	0.698
INTS4P1	-0.816	-0.703	-0.461
IFIT2	1.37	3.25	1.56
LOC401441 (retired record)	-0.00468	-0.247	0.271
LINC02905	-0.342	-0.6	-0.239
PRR18	-0.215	0.213	0.422
LOC440578 (retired record)	-0.226	-0.298	-0.338
TMEM108	-0.88	-0.653	-1.04
TMCO6	-1.33	-0.67	0.439
PNRC2	3.56 (active)	2.26	0.322
NFKB2	-0.74	-1.29	-0.969
CCDC43	1.32	1.72	2.3
LOC402066 (retired record)	-0.945	0.605	-0.33
KLHL15	0.853	0.781	1.66
RNPEPL1	-1.88	-1.82	-1.97
SERPINF1	1.82 (active)	1.92	2.55
TGFB1	0.174	0.158	0.244
FLNC	-0.796	-0.702	-0.989
GNB4	1.11	0.907	0.822
LOC256483 (retired record)	-1.13	-0.919	-0.897
TCTA	1.67	1.11	1.46
PPFIA4	-0.203	-0.64	-0.756
MAB21L4	-1.31	-1.7	-1.79
SF3A1	-1.47	-1.38	-1.15
CPEB4	-0.827	-0.972	-0.831
VPS13D	-1.3	-0.782	0.0362
